From ChEMBL document CHEMBL3988442, “University of Dundee, Small-Polar-MMV Screening Library” (2021).

Mtb growth Cornell: 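Whole-cell assay for inhibitors of Mycobacterium tuberculosis growth, labelled Cornell in the record; the read-out is not stated. The concentration is filed as 10 mM, unlikely as a test dose, so the dose is not known. The record gives no direction; compounds strong in two other growth screens of this library score well above the rest, so higher reads as stronger inhibition. Size under these conditions: about 53,000 compounds, about 900 of them at 50% or above in at least one test.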
Mtb heat-shock: 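Assay on Mycobacterium tuberculosis, filed only as a heat shock assay from Cornell; the read-out is not stated. The concentration is filed as 10 mM, unlikely as a test dose, so the dose is not known. Higher reads as stronger inhibition (inferred: compounds with an IC50 in retests scored well above the rest). Of about 69,000 compounds tested this way, about 930 (1.4%) reached 50% or more in at least one test.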

The filed quantity is “Percent Effect” (%). The controls that fix the scale are not given in the record; negative values are as filed. The compounds are a random part of those screened. A dash means the value is not listed here; it may have been measured.

Compound | Mtb growth Cornell | Mtb heat-shock
CNC(=O)c1cccc(CNC2CCCSc3ccccc32)c1 (stereo not given) | 23.27 | -19.31
O=C(O)C(F)(F)F.O=C(O)C(F)(F)F.[H][C@]12C[C@@H](CN(C)C)N(C(C)=O)[C@@]1([H])CCN(C(=O)c1cncc(C)c1)C2 | 27.51 | -6.193
N#Cc1cn[nH]c1NCc1cc(I)cc(I)c1O | 104.4 | 10.61
O=C(c1ccnnc1)N1CCC2(CCN(c3ccsc3)C2=O)C1 (stereo not given) | 7.802 | -22.4
CCCc1cnc(C)nc1N1CCC(Cn2cc(CN(C)C)nn2)CC1 | 18.6 | -6.516
CCCNC(=O)C(C)n1nc(-c2ccc(C)o2)cc(N)c1=O (stereo not given) | 66.1 | 6.328
O=C(CCNC(=O)NC1CCN(C2CC2)CC1)NCc1ccccc1 | 13.49 | -19.55
Cc1ccc(CN2CCC3(CC2)C(=O)N(CCO)CCN3C)o1.O=C(O)C(F)(F)F.O=C(O)C(F)(F)F | - | 0.511
CCC(NC(=O)NCc1cccc(N(C)C)n1)c1cccs1 (stereo not given) | 28.86 | -30.33
Fc1cnc(N2CCC3(COCc4cnc(NCC5CC5)nc43)C2)nc1 (stereo not given) | 35.5 | -6.193
O=C(Cc1csc(N2CCNC2=O)n1)NC1(c2ccccc2)CCC1 | 1.976 | -1.992
CO[C@@H]1CCC[C@@H](NC(=O)CCCn2cncn2)[C@H]1O | 5.133 | 15.13
O=C(c1ccon1)N1CCCCC1c1nc2cc(F)ccc2[nH]1 (stereo not given) | 21.72 | 7.829
Cc1ccc(-c2ccc(Cl)nn2)cc1S(N)(=O)=O | 6.758 | -1.81
Cc1cc(C)nc(NCCC(=O)NCCn2ccc3ccccc32)n1 | -28.6 | 0.675
CCN(CC)C(=O)CN1CCc2c(nc(C3CCNCC3)nc2NC)C1.Cl | 17.95 | -0.5382
CCc1ccc(C2CCCCCN2C(=O)CNC(=O)NC2CC2)o1 (stereo not given) | - | -17.15
Cc1nc(CN2CCCC(NCc3sccc3C)C2)no1 (stereo not given) | -19.65 | -8.099
CSCC[C@H](NC(=O)CCn1ccc2c(Cl)cccc21)C(=O)O | 15.96 | -4.521
Cc1ncc(C(=O)N2CC(C(=O)N3CCCCCC3)C2)c(C)n1 | 6.577 | -6.688
CCN1CCC(NC(=O)CN2CC(n3nc(C)cc3C)C2)CC1 | -13.64 | -20.84
COCCCC1(C(=O)O)CCCN(C(=O)c2ccc(Cl)cc2F)C1 (stereo not given) | 18.35 | 17.39
CCc1cc(N2CCC(NC3CCOCC3)CC2)nc(N(C)C)n1 | -7.139 | -30.26
CCCc1nc2c(c(C)c(C)n2Cc2cccnc2)c(N)c1CC | 0.8008 | -1.805
CC(C)c1nc2c(n1C)CCN(CC(=O)Nc1ccnn1C(C)C)C2 | - | 1.29
Cc1ccc(NC2CCN(C(=O)C(C(C)C)n3cncn3)CC2)nn1 (stereo not given) | -24.2 | -4.735
CS(=O)(=O)c1ccc(-c2cc(O)cc(CCC3CCCCN3)c2)cc1 (stereo not given) | - | 9.201
Cc1ccc(C(=O)N2CCSCC2)cc1N1CCNC1=O | 0.04574 | -6.451
[H][C@]12CC[C@]([H])(CN(C(=O)C3CCC3)C1)N(C(=O)c1cccc(N(C)C)c1)C2 | 12.62 | -5.378
Cc1nc2c(c(N3CCC(CCn4cccn4)CC3)n1)CCNCC2 | 12.55 | -9.803
Cc1ccnc(CC(C)N(C)c2cc(CCN)nc(C)n2)c1 (stereo not given) | 0.2245 | -1.206
COCc1nc(CN2C(=O)OC[C@@H]2C(C)C)no1 | - | -3.428
Cc1nc2c(c(=O)n1C)CN(C(=O)C1CCCN(CC(N)=O)C1)C2 (stereo not given) | -5.835 | -8.75
O=C(O)C(F)(F)F.[H][C@@]12CCN(CC(C)C)[C@@]1([H])CCN2C(=O)N(C)C | 9.886 | -12.18
COc1nccc(N2CC[C@H](N3CCOCC3)[C@H](CCCO)C2)c1C#N | 1.996 | -32.04
O=C1CCc2cc(-c3csc(CCN4CCOC4=O)n3)ccc2N1 | - | 8.363
O=C(O)C(F)(F)F.O=C(O)C(F)(F)F.[H][C@@]12C[C@@H](Oc3cccnc3)CN1CCN(C(=O)c1ccc(F)cc1)C2 | 16.95 | -25.39
CCN(c1ccc(C(=O)N2CCCC(C)C2)cc1)S(=O)(=O)CC (stereo not given) | -13.92 | 13.38
O=C(O)C(F)(F)F.[H][C@]12CCN(c3ccccn3)C[C@@]1([H])OCCN(C(=O)c1ccco1)C2 | 13.14 | -9.456
O=C(O)C(F)(F)F.[H][C@@]12CCN(CC3CC3)[C@@]1([H])CCN2S(=O)(=O)c1cccs1 | - | 6.779
O=C(O)C(F)(F)F.[H][C@@]12CCCO[C@]1([H])[C@H](N(C)Cc1ccco1)CN(C(=O)COC)C2 | -20.37 | -7.869
CS(=O)(=O)c1nccn1Cc1ccc(Cl)cc1 | 10.25 | -26.69
Cc1ncc(CN(C)CC(O)c2ccc(Br)cc2)s1 (stereo not given) | 10.36 | 5.055
CC(O)CN1CCN(C(=O)c2ccc(CN(C)C)cc2)CC1 (stereo not given) | -81.28 | -8.227
Cn1ccnc1CN1CCC2(CC1)CN(c1cncnc1)C(=O)CO2.O=C(O)C(F)(F)F | 9.636 | -4.83
O=C(O)C(F)(F)F.O=C(c1ccccn1)N1CCC2(CCCN(c3nncs3)C2)C1 (stereo not given) | -23.52 | 6.451
CC(C)c1nnc2n1CCN(Cc1csc(CC(=O)N(C)C)n1)C2 | - | -10.23
CCCc1noc(C(C)S(=O)(=O)Cc2nc(C3CC3)no2)n1 (stereo not given) | 8.422 | 14.4
COc1cccc(Cl)c1C(C(=O)O)N1CCC(Cn2cccn2)CC1 (stereo not given) | -18.71 | 4.93
O=C1NCc2ccccc2CC12CCN(Cc1c(F)cccc1Cl)C2 (stereo not given) | - | -5.869
CCN(Cc1ccncc1)c1cc(C2CCNCC2)nc(C)n1 | -6.004 | -13.1
CCc1nc(N)sc1C(=O)N1CCC(c2cc(O)nc(C)n2)CC1 | -2.68 | -17.6
Cn1nc(C(=O)NCc2cccs2)c2c1CCS(=O)(=O)C2 | - | 8.713
CC(=O)NCCC(=O)Nc1sccc1C(=O)C(C)(C)C | 17.96 | -2.957
Cc1ccc(CN2CCC3(CC2)CC(c2cccnc2)CO3)s1.O=C(O)C(F)(F)F.O=C(O)C(F)(F)F (stereo not given) | -12.37 | 5.401
O=C(O)C(F)(F)F.O=C(O)C(F)(F)F.[H][C@@]12COC[C@@H](C(=O)Nc3cccnc3)[C@]1([H])CN(C1CCCC1)C2 | 22.08 | -37.6
O=C(Nc1ccnc(OC2CCOC2)c1)C1CCC1 (stereo not given) | 9.74 | 12.72
C1CCC(CSc2nnnn2C2CC2)OC1 (stereo not given) | 2.99 | 31.05
Cl.[H][C@@]12CCCCN[C@]1([H])[C@@H](c1ccccc1)CCN2S(=O)(=O)N(CC)CC | -15.63 | -6.669
COc1cccc(OC)c1-c1ccnc2cc(CC(=O)NC3CC3)nn12 | -0.9551 | -19.3
Cc1cccc(-c2ccc3nc(C4CCN(CC5CC5)CC4)nn3c2)c1.O=C(O)C(F)(F)F | -0.1095 | -22.07
CCc1nc(C2CCCN(C(=O)c3c[nH]c(C(C)C)n3)C2)no1 (stereo not given) | 23.64 | -0.831
CCc1noc(C(C)N2CCC(C(=O)Nc3cnn(CC)c3)CC2)n1 (stereo not given) | - | -12.37
CC(C)NC(=O)C1CCN(c2snc3ccccc23)CC1 | -0.3901 | 0.3221
Cc1nc(C2(O)CCCNCC2)sc1CCOc1ccc(Cl)cc1.Cl (stereo not given) | -61.44 | 8.367
CSCc1noc(CNC(=O)C2CCN(C(C)C)CC2)n1 | - | -1.975
CCC(C(=O)N1CCN(S(=O)(=O)N2CCCC2)CC1)n1cccn1 (stereo not given) | -8.505 | -52.66
Cc1nc(C#N)c(N2CCC(c3nc(-c4ccc(F)cc4)no3)CC2)o1 | -36.43 | -22.23
CCNC(=O)CN(CC)C(=O)c1csc(Cc2ccccc2F)n1 | 15.04 | 13.03
CN(Cc1ccc(-n2cccn2)cc1)CC1CCCN1c1cccnn1 (stereo not given) | - | 27.25
O=C(C(c1ccc(F)cc1)N1CCCCC1)N1CCn2cncc2C1 (stereo not given) | - | 6.279
COC(=O)[C@@H](NC(=O)c1snnc1-c1ccc(OC)cc1)C(C)C | 58.81 | 49.73
Cc1nn(C)c(C)c1C1CCCN1Cc1nc2ccccc2n1C (stereo not given) | - | -4.291
Cc1cc(Cn2cc(C(C)Cc3ccc4c(c3)OCO4)nn2)n[nH]1 (stereo not given) | 5.416 | 14.9
Cc1cc(F)ccc1NC(=O)NCC(C)N1CCOCC1 (stereo not given) | -19.21 | -35.43
CC(C)NC(=O)N1CCN(CCn2cccn2)c2ncccc2C1.O=C(O)C(F)(F)F | 0.8008 | 8.457
CC(c1nccs1)n1cc(-c2cc(CN3CCCCC3)cs2)nn1 (stereo not given) | - | 17.48
CN(Cc1ccc(F)cc1)Cc1nc(-c2cnccn2)no1 | - | 7.648
Cc1noc(C)c1C(=O)NCc1ccc(N2CCCCCC2)nc1 | 6.277 | -10.93

The first 10 entries again:

Compound	Mtb growth Cornell	Mtb heat-shock
CNC(=O)c1cccc(CNC2CCCSc3ccccc32)c1 (stereo not given)	23.27	-19.31
O=C(O)C(F)(F)F.O=C(O)C(F)(F)F.[H][C@]12C[C@@H](CN(C)C)N(C(C)=O)[C@@]1([H])CCN(C(=O)c1cncc(C)c1)C2	27.51	-6.193
N#Cc1cn[nH]c1NCc1cc(I)cc(I)c1O	104.4	10.61
O=C(c1ccnnc1)N1CCC2(CCN(c3ccsc3)C2=O)C1 (stereo not given)	7.802	-22.4
CCCc1cnc(C)nc1N1CCC(Cn2cc(CN(C)C)nn2)CC1	18.6	-6.516
CCCNC(=O)C(C)n1nc(-c2ccc(C)o2)cc(N)c1=O (stereo not given)	66.1	6.328
O=C(CCNC(=O)NC1CCN(C2CC2)CC1)NCc1ccccc1	13.49	-19.55
Cc1ccc(CN2CCC3(CC2)C(=O)N(CCO)CCN3C)o1.O=C(O)C(F)(F)F.O=C(O)C(F)(F)F	-	0.511
CCC(NC(=O)NCc1cccc(N(C)C)n1)c1cccs1 (stereo not given)	28.86	-30.33
Fc1cnc(N2CCC3(COCc4cnc(NCC5CC5)nc43)C2)nc1 (stereo not given)	35.5	-6.193